Assay results taken from the supplement of paper PMC10849652.
Some of the results follow.

Sequences of proteins named here, by UniProt entry; tags and fusion partners are left off. A change or cut given only in a name is not applied to a line headed by its entry.
UniProt P78406: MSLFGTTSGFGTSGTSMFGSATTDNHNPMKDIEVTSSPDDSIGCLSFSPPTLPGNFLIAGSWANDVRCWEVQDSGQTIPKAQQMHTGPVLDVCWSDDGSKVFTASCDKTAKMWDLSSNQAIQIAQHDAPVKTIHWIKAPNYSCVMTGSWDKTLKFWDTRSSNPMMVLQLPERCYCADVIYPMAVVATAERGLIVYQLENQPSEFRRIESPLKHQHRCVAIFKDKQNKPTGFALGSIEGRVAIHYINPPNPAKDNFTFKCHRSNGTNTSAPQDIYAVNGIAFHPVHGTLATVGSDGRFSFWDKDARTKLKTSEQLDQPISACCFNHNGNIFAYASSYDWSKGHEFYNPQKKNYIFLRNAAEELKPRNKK
UniProt P61020: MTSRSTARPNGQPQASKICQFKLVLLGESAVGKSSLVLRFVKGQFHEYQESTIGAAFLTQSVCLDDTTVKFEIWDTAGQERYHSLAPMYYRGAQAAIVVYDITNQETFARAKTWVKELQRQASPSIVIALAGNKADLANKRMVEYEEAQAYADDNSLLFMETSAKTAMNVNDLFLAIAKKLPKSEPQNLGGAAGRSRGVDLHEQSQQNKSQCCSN
UniProt Q96S59, whole entry, looked up: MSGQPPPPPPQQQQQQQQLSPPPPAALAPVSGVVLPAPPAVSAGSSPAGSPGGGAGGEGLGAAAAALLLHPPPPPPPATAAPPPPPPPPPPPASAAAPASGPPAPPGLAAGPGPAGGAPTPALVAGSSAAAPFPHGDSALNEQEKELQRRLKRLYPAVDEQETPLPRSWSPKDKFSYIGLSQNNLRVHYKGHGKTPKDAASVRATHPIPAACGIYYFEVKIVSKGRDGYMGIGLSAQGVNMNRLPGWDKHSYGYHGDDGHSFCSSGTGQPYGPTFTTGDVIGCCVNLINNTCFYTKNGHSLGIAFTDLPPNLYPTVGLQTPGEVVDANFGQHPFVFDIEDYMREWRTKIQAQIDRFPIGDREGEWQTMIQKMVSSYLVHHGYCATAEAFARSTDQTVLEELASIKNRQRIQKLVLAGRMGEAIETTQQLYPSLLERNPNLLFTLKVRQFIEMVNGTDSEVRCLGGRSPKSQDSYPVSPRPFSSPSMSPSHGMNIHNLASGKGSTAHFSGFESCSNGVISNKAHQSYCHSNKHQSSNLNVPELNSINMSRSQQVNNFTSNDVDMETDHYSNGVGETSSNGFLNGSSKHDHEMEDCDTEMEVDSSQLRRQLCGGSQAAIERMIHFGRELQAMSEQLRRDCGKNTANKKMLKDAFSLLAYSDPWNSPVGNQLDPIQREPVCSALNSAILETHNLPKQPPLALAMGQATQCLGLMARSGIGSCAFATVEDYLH
UniProt Q13637: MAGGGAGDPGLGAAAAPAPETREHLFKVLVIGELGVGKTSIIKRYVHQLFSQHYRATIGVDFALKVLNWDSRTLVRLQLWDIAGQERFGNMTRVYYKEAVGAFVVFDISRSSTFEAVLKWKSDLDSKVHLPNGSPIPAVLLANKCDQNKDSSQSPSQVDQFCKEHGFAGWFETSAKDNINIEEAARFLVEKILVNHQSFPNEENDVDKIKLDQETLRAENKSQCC
UniProt Q969Q5: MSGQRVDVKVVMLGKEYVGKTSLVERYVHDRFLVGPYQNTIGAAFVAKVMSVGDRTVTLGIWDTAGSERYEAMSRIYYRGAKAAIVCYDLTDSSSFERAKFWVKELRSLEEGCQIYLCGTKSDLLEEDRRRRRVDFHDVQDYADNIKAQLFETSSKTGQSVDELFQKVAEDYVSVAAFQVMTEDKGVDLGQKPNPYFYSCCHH
UniProt Q7Z6M1: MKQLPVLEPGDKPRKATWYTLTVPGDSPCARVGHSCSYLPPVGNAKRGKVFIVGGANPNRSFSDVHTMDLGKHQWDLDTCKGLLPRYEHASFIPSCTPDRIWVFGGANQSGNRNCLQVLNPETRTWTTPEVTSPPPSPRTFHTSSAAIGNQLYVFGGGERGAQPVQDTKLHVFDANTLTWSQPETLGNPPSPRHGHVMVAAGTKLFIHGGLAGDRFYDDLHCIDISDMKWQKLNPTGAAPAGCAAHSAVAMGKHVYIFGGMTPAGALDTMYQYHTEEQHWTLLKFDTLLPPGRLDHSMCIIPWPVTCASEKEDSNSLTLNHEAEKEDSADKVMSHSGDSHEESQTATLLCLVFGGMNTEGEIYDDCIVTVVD
UniProt Q96B01: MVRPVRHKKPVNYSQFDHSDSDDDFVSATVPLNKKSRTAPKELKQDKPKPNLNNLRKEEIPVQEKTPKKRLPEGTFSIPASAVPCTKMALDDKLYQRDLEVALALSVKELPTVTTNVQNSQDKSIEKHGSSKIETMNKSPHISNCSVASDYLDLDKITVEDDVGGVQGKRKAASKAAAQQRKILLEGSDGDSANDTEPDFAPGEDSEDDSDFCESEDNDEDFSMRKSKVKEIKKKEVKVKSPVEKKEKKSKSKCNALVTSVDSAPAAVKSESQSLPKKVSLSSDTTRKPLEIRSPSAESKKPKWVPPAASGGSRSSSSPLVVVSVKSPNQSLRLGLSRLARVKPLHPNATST
UniProt Q9UL26: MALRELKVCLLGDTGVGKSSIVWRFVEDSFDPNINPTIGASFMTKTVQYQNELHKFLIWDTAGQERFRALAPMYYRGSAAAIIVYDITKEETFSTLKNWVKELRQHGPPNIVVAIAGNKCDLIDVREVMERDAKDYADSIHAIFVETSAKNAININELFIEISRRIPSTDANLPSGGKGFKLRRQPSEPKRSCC
UniProt P49756, whole entry, looked up: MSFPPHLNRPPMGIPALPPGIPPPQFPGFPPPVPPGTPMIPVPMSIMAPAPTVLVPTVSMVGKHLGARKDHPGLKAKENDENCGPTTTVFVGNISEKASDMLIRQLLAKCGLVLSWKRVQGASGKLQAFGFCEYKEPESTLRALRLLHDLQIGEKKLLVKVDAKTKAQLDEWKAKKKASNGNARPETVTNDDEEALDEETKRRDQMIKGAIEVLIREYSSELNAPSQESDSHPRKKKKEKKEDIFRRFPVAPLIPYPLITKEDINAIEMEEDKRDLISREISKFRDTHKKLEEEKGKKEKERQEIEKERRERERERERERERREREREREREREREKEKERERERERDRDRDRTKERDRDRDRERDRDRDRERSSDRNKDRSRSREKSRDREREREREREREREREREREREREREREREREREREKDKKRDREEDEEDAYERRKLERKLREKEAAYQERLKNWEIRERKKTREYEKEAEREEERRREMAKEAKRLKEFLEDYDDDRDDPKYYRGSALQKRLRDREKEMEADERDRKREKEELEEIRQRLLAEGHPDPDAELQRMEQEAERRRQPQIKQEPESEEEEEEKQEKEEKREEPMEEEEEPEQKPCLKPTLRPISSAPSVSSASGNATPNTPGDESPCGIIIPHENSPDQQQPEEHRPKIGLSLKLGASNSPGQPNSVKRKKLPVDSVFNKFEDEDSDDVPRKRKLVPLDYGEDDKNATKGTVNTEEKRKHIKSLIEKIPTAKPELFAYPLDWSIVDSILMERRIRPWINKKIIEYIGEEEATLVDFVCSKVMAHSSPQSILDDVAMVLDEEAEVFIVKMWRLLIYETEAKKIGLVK
UniProt Q9NS91, whole entry, looked up: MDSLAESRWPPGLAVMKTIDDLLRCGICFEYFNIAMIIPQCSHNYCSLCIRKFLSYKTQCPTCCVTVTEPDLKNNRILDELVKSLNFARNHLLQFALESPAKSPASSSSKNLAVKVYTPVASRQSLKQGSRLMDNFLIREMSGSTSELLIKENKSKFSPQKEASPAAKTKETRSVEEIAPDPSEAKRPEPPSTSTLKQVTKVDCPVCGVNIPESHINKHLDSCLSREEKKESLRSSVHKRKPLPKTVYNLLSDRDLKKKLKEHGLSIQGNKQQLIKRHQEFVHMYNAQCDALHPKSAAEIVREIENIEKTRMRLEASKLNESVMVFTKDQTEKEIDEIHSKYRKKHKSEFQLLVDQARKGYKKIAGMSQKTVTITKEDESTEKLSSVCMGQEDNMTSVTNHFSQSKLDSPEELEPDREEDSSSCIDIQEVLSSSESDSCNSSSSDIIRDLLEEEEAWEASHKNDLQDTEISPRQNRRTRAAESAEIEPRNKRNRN
UniProt Q9H2M9: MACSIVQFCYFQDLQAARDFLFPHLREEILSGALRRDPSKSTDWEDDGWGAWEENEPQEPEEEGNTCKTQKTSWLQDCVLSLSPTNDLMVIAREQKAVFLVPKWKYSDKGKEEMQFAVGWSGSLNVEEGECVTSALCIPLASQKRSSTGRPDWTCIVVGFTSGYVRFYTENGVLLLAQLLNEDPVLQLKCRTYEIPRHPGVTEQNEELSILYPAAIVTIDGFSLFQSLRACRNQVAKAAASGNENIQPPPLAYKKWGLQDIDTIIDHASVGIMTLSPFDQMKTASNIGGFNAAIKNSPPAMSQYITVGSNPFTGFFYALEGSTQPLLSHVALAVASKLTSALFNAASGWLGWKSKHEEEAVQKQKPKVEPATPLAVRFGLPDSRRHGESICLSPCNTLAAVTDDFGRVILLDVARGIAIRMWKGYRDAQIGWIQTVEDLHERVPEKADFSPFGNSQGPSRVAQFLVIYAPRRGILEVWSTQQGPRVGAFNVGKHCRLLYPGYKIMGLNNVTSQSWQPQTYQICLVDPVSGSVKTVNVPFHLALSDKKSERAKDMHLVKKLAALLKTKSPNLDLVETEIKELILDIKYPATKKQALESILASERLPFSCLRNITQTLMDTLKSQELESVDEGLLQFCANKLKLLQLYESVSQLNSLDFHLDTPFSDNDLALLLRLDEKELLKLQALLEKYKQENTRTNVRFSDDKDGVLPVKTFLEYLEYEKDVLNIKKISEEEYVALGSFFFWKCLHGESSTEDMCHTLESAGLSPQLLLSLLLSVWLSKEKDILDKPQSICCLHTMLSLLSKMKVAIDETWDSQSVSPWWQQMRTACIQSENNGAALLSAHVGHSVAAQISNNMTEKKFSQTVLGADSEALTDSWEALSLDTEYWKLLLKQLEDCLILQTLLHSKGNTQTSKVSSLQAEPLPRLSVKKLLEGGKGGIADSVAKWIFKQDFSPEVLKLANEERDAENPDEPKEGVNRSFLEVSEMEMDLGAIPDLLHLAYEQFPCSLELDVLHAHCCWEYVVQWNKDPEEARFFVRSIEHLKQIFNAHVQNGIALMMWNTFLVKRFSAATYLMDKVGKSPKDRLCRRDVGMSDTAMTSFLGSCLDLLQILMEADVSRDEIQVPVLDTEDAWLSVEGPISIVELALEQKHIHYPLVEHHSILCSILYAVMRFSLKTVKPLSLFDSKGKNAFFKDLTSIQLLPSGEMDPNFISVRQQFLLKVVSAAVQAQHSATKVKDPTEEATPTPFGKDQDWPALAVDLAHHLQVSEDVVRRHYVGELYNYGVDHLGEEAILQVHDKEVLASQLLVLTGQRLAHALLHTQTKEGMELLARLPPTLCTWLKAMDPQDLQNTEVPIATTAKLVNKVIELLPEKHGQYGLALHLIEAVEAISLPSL
UniProt Q96S21: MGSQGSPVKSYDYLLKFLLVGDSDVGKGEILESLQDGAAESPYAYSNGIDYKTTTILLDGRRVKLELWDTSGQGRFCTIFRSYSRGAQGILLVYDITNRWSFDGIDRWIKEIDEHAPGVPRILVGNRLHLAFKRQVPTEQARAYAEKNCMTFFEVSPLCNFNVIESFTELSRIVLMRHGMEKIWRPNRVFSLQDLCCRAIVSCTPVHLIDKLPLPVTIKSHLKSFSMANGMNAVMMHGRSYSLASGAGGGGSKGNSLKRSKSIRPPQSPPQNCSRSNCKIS
UniProt P61006: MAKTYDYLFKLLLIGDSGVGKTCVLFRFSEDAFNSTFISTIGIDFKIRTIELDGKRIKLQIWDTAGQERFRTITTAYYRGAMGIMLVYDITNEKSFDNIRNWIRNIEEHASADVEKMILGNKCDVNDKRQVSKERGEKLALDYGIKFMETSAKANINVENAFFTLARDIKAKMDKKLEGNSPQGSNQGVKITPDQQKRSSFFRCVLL

How the values were obtained:
Assay in all cases: log2 fold change, soluble protein after heating vs DMSO (PISA); higher = thermal stabilisation; K562 cells, 10 uM, 30 min; active = over 0.2 and 3.5 SD of the protein, either way, in both replicates (recomputed)
erlotinib = compound: C#Cc1cccc(Nc2ncnc3cc(OCCOC)c(OCCOC)cc23)c1 [erlotinib]
How it was run: (§1)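 Thermal stability values are relative to control samples and come from duplicates. They are expressed as log2 fold changes. For measurement, K562 cells (2×10^6 cells/mL) received 10 μM compound for 30 min, and aliquots were heated for 3 min over 48°C-58°C, pooled, and extracted at 4°C in PBS with 0.5% NP-40. Soluble protein, the supernatant after 21,000xg for 90 min, was quantified by TMTpro 16plex LC-MS/MS with equalised channel sums.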

[1] = compound: C/C(=N\NC(=O)C1=CC(=CC=C1)S(=O)(=O)N2CCOCC2)/C3=C(C=CC(=C3)Cl)O
How it was run: as §1

[2] = compound: C1=CC(=C(C=C1Cl)C2=NC3=NC=CN=C3C(=N2)NC4=CC=NC=C4)F
How it was run: as §1

[3] = compound: C1=CC(=CC=C1C2=NC3=C(N2)C=C(C=C3)C(=O)N)OC4=CC=C(C=C4)Cl
How it was run: as §1

[4] = compound: C1=CC2=C(C=CC(=C2)/C=C\3/C(=O)NC(=NCC4=CC=CS4)S3)N=C1
How it was run: as §1

[5] = compound: C1=CC2=NC=CN=C2C=C1/C=C/3\C(=O)NC(=O)S3
How it was run: as §1

[6] = compound: C1=CC=C(C=C1)C2=NC(=C(N2)C3=CC=NC=C3)C4=CC(=C(C=C4)Cl)O
How it was run: as §1

[7] = compound: C1=CC=C2C(=C1)C3=NNC4=CC=CC(=C43)C2=O
How it was run: as §1

[8] = compound: C1CCN(C1)C(=O)NC2=CC=CC(=C2)NC3=NC=C(C(=N3)NCCC4=CN=CN4)Br
How it was run: as §1

[9] = compound: C1CN(CCC1(CC2=CC=C(C=C2)Cl)N)C3=NC=NC4=C3C=CN4
How it was run: as §1

Target	log2 fold change (erlotinib)	log2 fold change [1]	log2 fold change [2]	log2 fold change [3]	log2 fold change [4]	log2 fold change [5]	log2 fold change [6]	log2 fold change [7]	log2 fold change [8]	log2 fold change [9]
RAE1 (UniProt P78406)	inactive: 0.016	inactive: 0.017	inactive: -0.181	inactive: 0.047	inactive: 0.063	inactive: -0.034	inactive: -0.014	inactive: 0.024	inactive: -0.057	inactive: -0.029
RAF1 isoform 2 (UniProt P04049)	inactive: -0.048	inactive: 0.08	inactive: -0.129	inactive: 0.04	inactive: 0.197	inactive: 0.02	active: 0.513	inactive: 0.01	inactive: -0.121	inactive: 0.022
RAB5B (UniProt P61020)	inactive: -0.018	inactive: -0.037	inactive: -0.014	inactive: 0.017	inactive: -0.085	inactive: 0.007	inactive: 0.068	inactive: 0.025	inactive: 0.004	inactive: 0.066
RANBP9 (UniProt Q96S59)	inactive: -0.054	inactive: 0.017	inactive: -0.006	inactive: 0.01	inactive: -0.037	inactive: 0.011	inactive: 0.026	inactive: 0.007	inactive: -0.003	inactive: 0.017
RAB32 (UniProt Q13637)	inactive: -0.02	inactive: 0.047	inactive: -0.007	inactive: 0.002	inactive: -0.025	inactive: 0.069	inactive: -0.041	inactive: 0.044	inactive: 0	inactive: 0.042
RAB24 (UniProt Q969Q5)	inactive: -0.023	inactive: 0.056	inactive: 0.087	inactive: -0.034	inactive: -0.01	inactive: 0.035	inactive: -0.051	inactive: 0.033	inactive: 0.019	inactive: 0.018
RAC3 (UniProt P60763)	inactive: 0.05	inactive: -0.016	inactive: 0.029	inactive: -0.042	inactive: 0.009	inactive: 0.02	inactive: -0.009	inactive: -0.09	inactive: -0.007	inactive: 0.005
RABEPK (UniProt Q7Z6M1)	inactive: 0.046	inactive: 0.083	inactive: 0.054	inactive: 0.018	inactive: 0.003	inactive: -0.001	inactive: -0.013	inactive: 0.003	inactive: -0.022	inactive: 0.073
RAD51AP1 (UniProt Q96B01)	inactive: 0	inactive: -0.091	inactive: 0.016	inactive: 0.061	inactive: 0.058	inactive: 0.049	inactive: -0.066	inactive: -0.015	inactive: -0.047	inactive: -0.065
RAB22A (UniProt Q9UL26)	inactive: 0.007	inactive: -0.062	inactive: 0.023	inactive: -0.02	inactive: 0.038	inactive: 0.046	inactive: -0.018	inactive: -0.001	inactive: -0.072	inactive: 0.042
RBM25 (UniProt P49756)	inactive: 0.142	inactive: -0.037	inactive: -0.039	inactive: -0.025	inactive: -0.014	inactive: 0.055	inactive: -0.012	inactive: -0.008	inactive: -0.076	inactive: -0.137
RAD18 (UniProt Q9NS91)	inactive: 0.186	inactive: 0.157	inactive: 0.123	inactive: -0.069	inactive: 0.048	inactive: 0.086	inactive: 0.019	inactive: 0.007	inactive: -0.096	inactive: -0.056
RAB3GAP2 (UniProt Q9H2M9)	inactive: 0.068	inactive: 0.083	inactive: -0.043	inactive: -0.058	inactive: 0.035	inactive: -0.011	inactive: -0.025	inactive: 0.004	inactive: -0.068	inactive: -0.018
RAB40C (UniProt Q96S21)	inactive: -0.174	inactive: -0.079	inactive: 0	inactive: 0.286	inactive: -0.033	inactive: -0.027	inactive: 0.04	inactive: 0.06	inactive: -0.259	inactive: 0.087
RAB8A (UniProt P61006)	inactive: -0.014	inactive: -0.007	inactive: 0.042	inactive: -0.01	inactive: 0.061	inactive: -0.077	inactive: -0.001	inactive: 0.009	inactive: -0.024	inactive: 0.062

Some entries already given with just log2 fold change [8].
Target | log2 fold change [8]
RBM25 (UniProt P49756) | inactive: -0.076
RAD18 (UniProt Q9NS91) | inactive: -0.096
